Test results reported in patent US12350364B2, “Lipid body compositions, products made therefrom, methods of making same, and methods of use” (Xylome Corporation, priority 2019, dated 2025).

Assay: Lidocaine binding and partitioning into lipid bodies (UV 260 nm after 0.2 μm filtration)
Assay type: physicochemical
Experimental: In one example, the absorbance at 260 nm was used for determining Lidocaine binding and partitioning into lipid bodies using a UV spectrophotometry. Lipid bodies were cleared of excipients and antimicrobial preservative by undergoing a 1:10 wash in ethanol followed by rehydration in distilled water. […] Elimination of the background noise and minimizing dilutions improves the absorbance of UV-absorbing drugs such as lidocaine. The methodology used a lidocaine stock of 50 mg in 950 μL (50 mg/mL), which was used to load various concentrations of lidocaine into the lipid-body compositions of the invention.

## CCN(CC)CC(=O)Nc1c(C)cccc1C [Lidocaine]
500 μg Lidocaine in Salt (1M NaCl)
  Lidocaine Bound to Lipid Bodies: 28%
500 μg Lidocaine in Water
  Lidocaine Bound to Lipid Bodies: 16%
Control: 500 μg Lidocaine without Lipid Bodies and Filtered
  Lidocaine Bound to Lipid Bodies: 0%
